Data published in PubChem BioAssay AID720504 (National Center for Advancing Translational Sciences (NCATS), 2013).
In all, about 360,000 compounds went through this assay and about 10,000 (2.8%) were called active. Inconclusive means that the source gave no clear call. Such entries were picked first, then a sample of the others. Calls come from the whole dose curve; as a rule, active = well fitted inhibition curve with a large enough effect; inconclusive = small, poorly fitted or top-dose-only effect; inactive = flat fitted curve, though single readings scatter. Potencies of inconclusive entries are doubtful fits and often do not repeat.

The chains behind the UniProt entries cited, without tags or fusion partners.
UniProt P53350, whole entry, looked up: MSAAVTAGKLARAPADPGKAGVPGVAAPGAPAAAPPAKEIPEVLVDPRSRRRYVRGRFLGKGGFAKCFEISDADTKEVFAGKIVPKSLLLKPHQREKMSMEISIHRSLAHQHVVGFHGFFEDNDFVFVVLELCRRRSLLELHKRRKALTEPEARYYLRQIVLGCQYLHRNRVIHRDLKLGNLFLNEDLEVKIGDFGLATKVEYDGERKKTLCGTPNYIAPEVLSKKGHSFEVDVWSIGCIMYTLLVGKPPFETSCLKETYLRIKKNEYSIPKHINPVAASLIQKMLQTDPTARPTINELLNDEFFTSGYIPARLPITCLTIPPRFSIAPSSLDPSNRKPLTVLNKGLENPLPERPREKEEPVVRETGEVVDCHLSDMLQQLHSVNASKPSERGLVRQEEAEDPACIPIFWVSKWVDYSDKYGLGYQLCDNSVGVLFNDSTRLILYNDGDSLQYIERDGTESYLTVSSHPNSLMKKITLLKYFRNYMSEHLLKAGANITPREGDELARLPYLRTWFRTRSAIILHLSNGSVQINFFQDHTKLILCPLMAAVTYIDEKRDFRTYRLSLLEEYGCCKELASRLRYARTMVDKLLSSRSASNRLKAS

Target: Serine/threonine-protein kinase PLK1 (Homo sapiens) (UniProt P53350)
Experiment: qHTS for Inhibitors of PLK1-PDB (polo-like kinase 1 - polo-box domain): Primary Screen; note: nearly all actives have a fitted effect of over 65% in size; for max response, negative = inhibition: series mostly up to about 57 µM
Settings: Plk1 PBD binding of FITC phosphopeptide, fluorescence polarization
% is set by controls: 0 for no effect and ±100 for the full control effect; potency is the fitted concentration of half-maximal effect.

| SMILES | Potency | max response, negative = inhibition |
| --- | --- | --- |
| CC(C)C(C(=O)Nc1ccccc1)N1C(=O)c2ccccc2C1=O (stereo unspecified) | inconclusive: 26.7 µM [inhibitor, single point] |  |
| N#Cc1c(/N=C/C=C/c2ccccc2)sc2c1CCCC2 | active: 9.47 µM |  |
| COc1ccc(-c2ccc(/C=C3/C(=N)N4C=CSC4=NC3=O)o2)c([N+](=O)[O-])c1 |  | inactive: -5.35% |
| COc1ccc(/C=N/Nc2nc(C(=O)O)cs2)cc1 | inconclusive: 26.7 µM [inhibitor, single point] |  |
| O=C(O)CC(Cn1[nH]nnc1=S)c1ccccc1 (stereo unspecified) | inconclusive: 23.8 µM [inhibitor, single point] |  |
| COc1cccc(N=Cc2nc(-c3ccccc3)oc2OC(C)=O)c1 |  | inconclusive: -35.2% [inhibitor] |
| CC1CCCN(CCCNC(=O)c2nn(C)c3c2CSc2ccccc2-3)C1 (stereo unspecified) | inconclusive: 21.2 µM [inhibitor, single point] |  |
| COc1ccccc1C1=NN(C(=O)c2ccccc2)C(c2ccc(Br)cc2)C1 (stereo unspecified) |  | inactive: -3.05% |
| Cc1sc2c(c1C)C(O)=C(C(=O)Nc1ccccc1)S(=O)(=O)N2C | inconclusive: 21.2 µM [inhibitor, partial curve] |  |
| COC(=O)c1c(NS(=O)(=O)Cc2ccccc2)sc2c1CCCC2 | inconclusive: 26.7 µM [inhibitor, partial curve] |  |
| O=C(Nc1ccc(N2CCN(C(=O)c3ccco3)CC2)cc1)c1cccnc1Cl | inconclusive: 23.8 µM [inhibitor, single point] |  |
| CSc1ccc(-c2sc(Nc3ccccc3)n[n+]2-c2ccccc2)cc1 | active: 23.8 µM |  |
| O=C(Nc1ccccc1)C1CCN(c2nccs2)CC1 | inconclusive: 26.7 µM [inhibitor, single point] |  |
| O=C(OCC1OC(n2ncc(=O)[nH]c2=O)C(OC(=O)c2ccccc2)C1OC(=O)c1ccccc1)c1ccccc1 (stereo unspecified) | inconclusive: 23.8 µM [inhibitor, single point] |  |
| Cc1ccc(NCc2nnc(SCC(N)=O)n2CC2CCCO2)c(C)c1 (stereo unspecified) | active: 29.9 µM |  |
| N#C/C(=C\c1ccc([N+](=O)[O-])o1)C(=O)Nc1ccc(F)cc1 | inconclusive: 26.7 µM [inhibitor, single point] |  |
| COc1ccc(CCC(=O)OCC(=O)NC2CCCC2)cc1OC |  | inactive: -13.7% |
| CN(C)C(=O)c1cccc(-c2cnc3c(NC=O)cc(-c4ccccc4N(C)C)cn23)c1 | inconclusive: 26.7 µM [inhibitor, single point] |  |
| COCCCNC(=O)C(C)N1c2cccc3cccc(c23)S1(=O)=O (stereo unspecified) | active: 10.6 µM |  |
| Cc1ccc(C2Nc3cccc4cccc(c34)N2)cc1 | inconclusive: 37.7 µM [inhibitor, partial curve] |  |
| COc1cccc(-n2c(SCc3cc(=O)oc4cc(O)c(O)cc34)nc3ccccc3c2=O)c1 | inconclusive: 37.7 µM [inhibitor, single point] |  |
| CC(C)[C@H](NC(=O)NCc1ccc(Cl)cc1)C(=O)O |  | inactive: -0.0203% |
| CCCNC(=O)c1onc(CSc2ccc(Cl)cc2)c1C(=O)NC(C)C | inconclusive: 23.8 µM [inhibitor, partial curve] |  |
| CC(C)(C)c1ccc(-n2nc(C#N)c(Cl)cc2=O)cc1 | inconclusive: 26.7 µM [inhibitor, partial curve] |  |

| SMILES | Potency | max response, negative = inhibition |
| --- | --- | --- |
| CCOc1cc(/C=C(/C#N)c2ccc(Cl)cc2)cc(Cl)c1OCC(=O)O | inconclusive: 26.7 µM [inhibitor, single point] |  |
| COc1ccc(Nc2nc(N3CCOCC3)nc(N3CCOCC3)n2)cc1Cl |  | inactive: -5.67% |
| CC(C)(C)c1cc(CN2CCC(O)CC2)cc(C(C)(C)C)c1O | inconclusive: 26.7 µM [inhibitor, partial curve] |  |
| Cc1cc(C)c2nc(NNC(=O)c3ccc(S(=O)(=O)N4CCCC(C)C4)cc3)sc2c1 (stereo unspecified) |  | inactive: -15.5% |
| COC(=O)c1sc2ccccc2c1NC(=O)c1coc2ccccc2c1=O | inconclusive: 1.34 µM [inhibitor, full curve, poor fit] |  |
| COc1ccc(NS(=O)(=O)c2cc3c(cc2C)N(C)CCO3)cc1 |  | inactive: -3.9% |
| C[C@@H]1Cn2cnc(C(=O)Nc3ccc(CNC(=O)OC(C)(C)C)cc3)c2C(=O)N1 |  | inactive: -11.4% |
| COc1cc(NC(=S)NC(=O)c2ccccc2F)ccc1NC(=O)c1ccco1 |  | inactive: -19.3% |
| Cc1ccc(N2CCN(C(=O)C(=O)c3cccc([N+](=O)[O-])c3)CC2)cc1 |  | inactive: -13.1% |
| C/C=C/C=C/C(=O)N1CC2(CC(c3cccc(NC(=O)CCCCC)c3)=NO2)C[C@H]1C(N)=O (stereo partly specified) |  | inactive: -29.2% |
| CN(CCO)c1ccc2c(c1)OC[C@H](Cc1ccccc1)NS2(=O)=O |  | inactive: -2.29% |
| Cc1nc(SCC(=O)N2CCN(c3ccccc3)CC2)n[nH]1 | inconclusive: 33.6 µM [inhibitor, partial curve] |  |
| NC(N)=N/N=C/c1ccc(OCc2ccccc2Cl)cc1 |  | inactive: -5.97% |
| Cc1ccc(-c2cc(C(=O)Nc3ccc(S(=O)(=O)Nc4cc(C)on4)cc3)c3ccccc3n2)c(C)c1 | inconclusive: 29.9 µM [inhibitor, single point] |  |
| CCn1c(CSc2nc(C)cs2)nc2cc(S(=O)(=O)N(C)C)ccc21 | active: 26.7 µM |  |
| O=C(NC(=S)Nc1ccc(F)c([N+](=O)[O-])c1)c1ccccc1F |  | inactive: -15.3% |
| COc1ccc(C)cc1NC(=O)c1ccccc1NS(=O)(=O)c1ccc(Cl)s1 | inconclusive: 21.2 µM [inhibitor, single point] |  |
| CCOC(=O)Cc1cnc(NC(=O)Cn2nnc(-c3ccc(OCC)cc3)n2)s1 | active: 23.8 µM |  |
| CCOc1ccc(/C=C2/Sc3ccc(C(=O)NCC4CCCO4)cc3N(C)C2=O)cc1OC (stereo unspecified) | inconclusive: 26.7 µM [inhibitor, single point] |  |
| O=C(Nc1cccc2ccccc12)c1csc([C@@H]2C[C@H](O)[C@@H](CO)O2)n1 |  | inactive: -10.3% |
| Cc1sc(NC(=S)NC(=O)c2ccco2)c(C#N)c1C |  | inconclusive: -34.8% [inhibitor] |
| CCCCOc1ccccc1C(=O)NCCCC(=O)O | inconclusive: 23.8 µM [inhibitor, single point] |  |
| CC1CCc2cccc3c2N1c1cc(C#N)c(C#N)cc1O3 (stereo unspecified) | inconclusive: 23.8 µM [inhibitor, partial curve] |  |
| CC1(C)Cc2c(c(N3CCOCC3)nc3sc(C(=O)N4CCCCC4)c(N)c23)CO1 | inconclusive: 18.9 µM [inhibitor, partial curve] |  |

Five entries drawn at random from the list so far, as already listed:

| SMILES | Potency | max response, negative = inhibition |
| --- | --- | --- |
| COc1ccc(NS(=O)(=O)c2cc3c(cc2C)N(C)CCO3)cc1 |  | inactive: -3.9% |
| COC(=O)c1c(NS(=O)(=O)Cc2ccccc2)sc2c1CCCC2 | inconclusive: 26.7 µM [inhibitor, partial curve] |  |
| Cc1ccc(C2Nc3cccc4cccc(c34)N2)cc1 | inconclusive: 37.7 µM [inhibitor, partial curve] |  |
| N#Cc1c(/N=C/C=C/c2ccccc2)sc2c1CCCC2 | active: 9.47 µM |  |
| Cc1sc2c(c1C)C(O)=C(C(=O)Nc1ccccc1)S(=O)(=O)N2C | inconclusive: 21.2 µM [inhibitor, partial curve] |  |

The list goes on.

| SMILES | Potency | max response, negative = inhibition |
| --- | --- | --- |
| NC(=S)NNc1c(F)c(F)c(F)c(F)c1F | active: 26.7 µM |  |
| Cc1ccc(N(C(=O)c2csnn2)C(C(=O)NC2CCCCC2)c2cccnc2)cc1 (stereo unspecified) |  | inactive: 3.9% |
| CCOc1ccc(Oc2c(/C=N/NC(N)=O)c(C)nn2-c2ccccc2)cc1 |  | inactive: 1.09% |
| CCOc1cc(/C=C2/C(=N)N3C(=NC2=O)SN=C3S(C)(=O)=O)ccc1OC(=O)c1ccco1 | inconclusive: 37.7 µM [inhibitor, single point] |  |
| CNC(=O)c1c(NC(=O)c2ccc(S(=O)(=O)N3CCCCC3C)cc2)sc2c1CCN(C)C2 (stereo unspecified) |  | inactive: 29.5% |
| C[C@H](O)[C@@H]1C(=O)N2CCc3ccc(-c4ccccc4)cc3[C@@H]2C[C@@H]1N(C)C(=O)c1ccco1 |  | inactive: -22.3% |
| CNc1nc(N/N=C/c2ccc([N+](=O)[O-])cc2)nc(Nc2ccccc2)n1 | active: 26.7 µM |  |
| Cc1ccc(NC(=S)NN2CCN(C)CC2)c(C)c1 |  | inactive: -10% |
| O=C(O)c1cccnc1SC1CC(=O)N(Cc2ccccc2)C1=O (stereo unspecified) | active: 3.77 µM |  |
| COC(=O)C1CCN(C(=O)CSc2nc3ccc(OC)cc3[nH]2)CC1 | inconclusive: 23.8 µM [inhibitor, single point] |  |
| COc1ccccc1C(=O)N/C(=C/c1ccc(Br)cc1)C(=O)N1CCCC1 | active: 26.7 µM |  |
| CN(C)Cc1cnc2ccc(Cl)cn12 |  | inactive: -1.52% |
| C[C@H](CO)N1C[C@H](C)[C@H](CN(C)C(=O)C2CC2)OCc2cnnn2CCCC1=O |  | inactive: -12% |
| CC(=O)N1CCc2cc(Br)cc(S(=O)(=O)CCC(=O)Nc3c(C)n(C)n(-c4ccccc4)c3=O)c21 | inconclusive: 29.9 µM [inhibitor, single point] |  |
| N#CCSc1n[nH]c2nc3c(c(=O)n12)C1(CCCC1)Cc1ccccc1-3 | inconclusive: 29.9 µM [inhibitor, single point] |  |
| Cc1cc(C)cc(C(=O)Nc2nnc(SCC(=O)N3CCCc4ccccc43)s2)c1 |  | inactive: -2.8% |
| NS(=O)(=O)c1cc(C(=O)OCC(=O)Nc2ccc(N3CCCCC3)cc2)ccc1Cl | inconclusive: 23.8 µM [inhibitor, partial curve] |  |
| O=S(=O)(O)c1cc(O)c(N=Nc2ccc(O)cc2O)c2ccccc12 | inconclusive: 10.6 µM [inhibitor, partial curve] |  |
| Cc1cccn2c1nc(=S)n2C(=O)c1ccco1 | inconclusive: 29.9 µM [inhibitor, single point] |  |
| COc1ccc2[nH]c(=O)c(CNc3ccccc3)cc2c1 | inconclusive: 16.8 µM [inhibitor, partial curve] |  |
| O=C(COc1ccccc1)N(Cc1cccc(F)c1)C1CCS(=O)(=O)C1 (stereo unspecified) |  | inactive: -10.9% |
| O=C1c2ccccc2CC1Sc1nnc(-c2ccncc2)o1 (stereo unspecified) | inconclusive: 23.8 µM [inhibitor, single point] |  |
| CSc1ccc(C(=S)N2CCCC2)cc1 | inconclusive: 11.9 µM [inhibitor, partial curve] |  |
